Measured values taken from the supplement of paper PMC10849652.
This is one part of the list.

Protein sequences, listed by entry. Tags and fused reporters are not part of them. Lines headed by an entry give the natural chain unless they say otherwise; changes in a name come on top.
UniProt O43815: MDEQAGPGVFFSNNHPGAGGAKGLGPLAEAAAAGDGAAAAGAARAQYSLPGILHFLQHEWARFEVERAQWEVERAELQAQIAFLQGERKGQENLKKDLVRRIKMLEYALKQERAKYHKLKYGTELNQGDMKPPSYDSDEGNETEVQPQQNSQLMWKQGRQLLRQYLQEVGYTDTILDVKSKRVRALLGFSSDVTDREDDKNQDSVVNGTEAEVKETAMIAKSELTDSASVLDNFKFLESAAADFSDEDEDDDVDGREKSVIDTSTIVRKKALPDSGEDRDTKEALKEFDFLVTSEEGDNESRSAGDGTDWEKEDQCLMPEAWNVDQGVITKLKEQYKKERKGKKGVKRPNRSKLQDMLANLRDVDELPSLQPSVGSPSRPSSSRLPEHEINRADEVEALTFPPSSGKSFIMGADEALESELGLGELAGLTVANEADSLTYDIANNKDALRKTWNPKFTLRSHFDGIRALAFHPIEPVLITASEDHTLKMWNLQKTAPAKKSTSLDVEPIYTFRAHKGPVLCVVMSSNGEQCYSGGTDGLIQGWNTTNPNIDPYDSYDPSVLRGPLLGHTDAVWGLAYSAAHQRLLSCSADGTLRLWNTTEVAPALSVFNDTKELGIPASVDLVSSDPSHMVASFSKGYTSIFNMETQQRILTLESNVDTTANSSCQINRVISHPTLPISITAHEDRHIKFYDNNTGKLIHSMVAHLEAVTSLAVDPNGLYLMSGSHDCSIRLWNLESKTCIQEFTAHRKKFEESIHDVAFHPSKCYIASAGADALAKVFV
UniProt Q96BN2: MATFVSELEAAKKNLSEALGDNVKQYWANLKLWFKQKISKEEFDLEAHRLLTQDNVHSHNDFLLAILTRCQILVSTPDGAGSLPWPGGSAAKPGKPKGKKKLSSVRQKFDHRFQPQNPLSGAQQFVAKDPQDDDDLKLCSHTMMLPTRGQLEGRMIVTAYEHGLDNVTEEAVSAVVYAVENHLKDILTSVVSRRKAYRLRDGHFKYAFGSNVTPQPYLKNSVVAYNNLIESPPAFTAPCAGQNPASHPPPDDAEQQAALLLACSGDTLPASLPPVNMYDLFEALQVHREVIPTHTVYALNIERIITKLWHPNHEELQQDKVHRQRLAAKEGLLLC
UniProt Q9NRP7: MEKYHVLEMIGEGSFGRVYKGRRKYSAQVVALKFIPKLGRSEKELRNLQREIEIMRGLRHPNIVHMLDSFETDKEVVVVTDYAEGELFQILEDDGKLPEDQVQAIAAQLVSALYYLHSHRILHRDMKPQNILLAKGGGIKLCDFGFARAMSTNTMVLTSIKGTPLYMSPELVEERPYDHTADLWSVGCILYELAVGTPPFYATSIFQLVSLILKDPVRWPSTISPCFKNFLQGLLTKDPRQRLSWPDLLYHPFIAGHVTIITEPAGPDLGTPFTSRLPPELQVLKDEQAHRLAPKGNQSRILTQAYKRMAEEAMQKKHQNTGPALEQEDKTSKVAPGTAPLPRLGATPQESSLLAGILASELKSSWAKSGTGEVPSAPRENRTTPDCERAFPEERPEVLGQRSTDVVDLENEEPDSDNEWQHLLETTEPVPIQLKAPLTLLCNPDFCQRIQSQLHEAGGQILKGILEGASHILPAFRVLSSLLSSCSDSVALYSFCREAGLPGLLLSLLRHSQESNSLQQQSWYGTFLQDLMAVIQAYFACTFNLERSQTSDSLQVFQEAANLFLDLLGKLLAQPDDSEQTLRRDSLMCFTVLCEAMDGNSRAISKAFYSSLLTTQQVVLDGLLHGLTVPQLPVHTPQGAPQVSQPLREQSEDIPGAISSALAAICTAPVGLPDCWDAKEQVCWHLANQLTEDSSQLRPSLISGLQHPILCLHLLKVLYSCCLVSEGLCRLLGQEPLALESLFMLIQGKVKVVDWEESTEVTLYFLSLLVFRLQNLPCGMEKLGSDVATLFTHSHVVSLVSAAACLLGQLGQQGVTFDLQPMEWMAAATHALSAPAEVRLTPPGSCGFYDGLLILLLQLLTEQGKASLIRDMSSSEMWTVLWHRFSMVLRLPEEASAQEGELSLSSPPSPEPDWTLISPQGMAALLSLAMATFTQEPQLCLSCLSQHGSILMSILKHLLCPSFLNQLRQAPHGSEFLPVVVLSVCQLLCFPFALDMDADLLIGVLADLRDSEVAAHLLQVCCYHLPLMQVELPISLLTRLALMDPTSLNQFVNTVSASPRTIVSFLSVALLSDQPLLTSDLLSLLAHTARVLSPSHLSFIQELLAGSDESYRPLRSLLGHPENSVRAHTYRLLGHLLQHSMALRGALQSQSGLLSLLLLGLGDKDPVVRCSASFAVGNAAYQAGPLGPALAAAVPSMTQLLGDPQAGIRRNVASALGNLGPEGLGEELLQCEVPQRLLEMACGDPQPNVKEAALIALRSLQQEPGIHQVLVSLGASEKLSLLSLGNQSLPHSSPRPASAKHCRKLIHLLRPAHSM
UniProt Q5VSL9: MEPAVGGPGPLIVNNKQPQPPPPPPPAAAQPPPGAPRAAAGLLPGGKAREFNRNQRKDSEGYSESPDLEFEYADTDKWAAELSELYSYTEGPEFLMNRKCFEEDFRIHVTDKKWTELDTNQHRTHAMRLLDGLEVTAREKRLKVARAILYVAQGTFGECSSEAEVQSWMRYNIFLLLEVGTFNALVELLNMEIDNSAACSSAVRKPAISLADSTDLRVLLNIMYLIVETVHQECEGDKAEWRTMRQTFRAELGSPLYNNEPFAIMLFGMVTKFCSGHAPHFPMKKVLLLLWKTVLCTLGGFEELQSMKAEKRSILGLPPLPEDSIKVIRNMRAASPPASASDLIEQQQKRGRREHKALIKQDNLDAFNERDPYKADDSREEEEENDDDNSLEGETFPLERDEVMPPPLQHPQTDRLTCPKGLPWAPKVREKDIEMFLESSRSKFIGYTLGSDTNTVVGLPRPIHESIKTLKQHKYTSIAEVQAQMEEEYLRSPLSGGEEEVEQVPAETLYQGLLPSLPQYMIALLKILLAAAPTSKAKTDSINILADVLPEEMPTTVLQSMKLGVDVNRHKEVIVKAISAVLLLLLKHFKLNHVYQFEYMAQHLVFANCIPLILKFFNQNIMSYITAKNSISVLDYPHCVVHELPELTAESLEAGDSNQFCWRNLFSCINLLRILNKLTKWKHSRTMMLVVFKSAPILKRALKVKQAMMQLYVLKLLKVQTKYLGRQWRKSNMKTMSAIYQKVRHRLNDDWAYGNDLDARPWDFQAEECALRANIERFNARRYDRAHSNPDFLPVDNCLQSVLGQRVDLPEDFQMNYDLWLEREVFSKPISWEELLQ
UniProt O15056: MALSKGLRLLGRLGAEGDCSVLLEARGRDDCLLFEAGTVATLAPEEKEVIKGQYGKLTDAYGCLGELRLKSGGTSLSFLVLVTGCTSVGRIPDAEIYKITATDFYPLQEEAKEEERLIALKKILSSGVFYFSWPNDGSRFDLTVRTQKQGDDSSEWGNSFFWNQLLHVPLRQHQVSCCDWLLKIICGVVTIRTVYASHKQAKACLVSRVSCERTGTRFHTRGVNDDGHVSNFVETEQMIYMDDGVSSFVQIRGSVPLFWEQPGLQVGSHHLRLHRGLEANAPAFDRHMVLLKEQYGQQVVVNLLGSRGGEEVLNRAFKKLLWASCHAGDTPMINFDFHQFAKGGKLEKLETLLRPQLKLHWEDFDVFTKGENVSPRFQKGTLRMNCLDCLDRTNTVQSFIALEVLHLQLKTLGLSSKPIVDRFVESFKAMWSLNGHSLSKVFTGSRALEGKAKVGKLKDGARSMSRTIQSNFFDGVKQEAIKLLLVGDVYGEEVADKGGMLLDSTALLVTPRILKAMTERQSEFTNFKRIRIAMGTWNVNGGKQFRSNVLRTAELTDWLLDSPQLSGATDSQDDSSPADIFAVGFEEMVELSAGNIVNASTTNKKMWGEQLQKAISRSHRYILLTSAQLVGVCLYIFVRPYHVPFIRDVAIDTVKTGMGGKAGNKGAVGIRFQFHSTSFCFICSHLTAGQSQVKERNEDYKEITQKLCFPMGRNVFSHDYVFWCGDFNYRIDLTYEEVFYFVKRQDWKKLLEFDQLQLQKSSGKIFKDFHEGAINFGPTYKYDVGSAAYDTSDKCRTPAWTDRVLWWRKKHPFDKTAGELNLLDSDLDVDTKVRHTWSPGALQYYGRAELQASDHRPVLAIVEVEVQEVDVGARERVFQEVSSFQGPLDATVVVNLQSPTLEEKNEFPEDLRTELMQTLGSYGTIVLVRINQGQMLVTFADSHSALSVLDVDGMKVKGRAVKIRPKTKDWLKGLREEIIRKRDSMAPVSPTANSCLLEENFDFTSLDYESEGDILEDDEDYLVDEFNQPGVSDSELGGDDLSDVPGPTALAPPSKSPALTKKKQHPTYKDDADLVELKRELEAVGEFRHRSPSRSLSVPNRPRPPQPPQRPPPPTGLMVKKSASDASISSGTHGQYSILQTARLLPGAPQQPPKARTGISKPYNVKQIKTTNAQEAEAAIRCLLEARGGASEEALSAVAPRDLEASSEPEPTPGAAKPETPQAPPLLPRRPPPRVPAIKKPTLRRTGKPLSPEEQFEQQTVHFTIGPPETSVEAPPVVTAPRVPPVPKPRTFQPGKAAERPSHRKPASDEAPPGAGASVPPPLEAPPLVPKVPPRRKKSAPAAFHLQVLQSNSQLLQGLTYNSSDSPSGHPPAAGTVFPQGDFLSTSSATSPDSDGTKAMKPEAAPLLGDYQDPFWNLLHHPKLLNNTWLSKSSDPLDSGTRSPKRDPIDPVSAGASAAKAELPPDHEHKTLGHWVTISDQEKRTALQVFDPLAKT
UniProt Q15831: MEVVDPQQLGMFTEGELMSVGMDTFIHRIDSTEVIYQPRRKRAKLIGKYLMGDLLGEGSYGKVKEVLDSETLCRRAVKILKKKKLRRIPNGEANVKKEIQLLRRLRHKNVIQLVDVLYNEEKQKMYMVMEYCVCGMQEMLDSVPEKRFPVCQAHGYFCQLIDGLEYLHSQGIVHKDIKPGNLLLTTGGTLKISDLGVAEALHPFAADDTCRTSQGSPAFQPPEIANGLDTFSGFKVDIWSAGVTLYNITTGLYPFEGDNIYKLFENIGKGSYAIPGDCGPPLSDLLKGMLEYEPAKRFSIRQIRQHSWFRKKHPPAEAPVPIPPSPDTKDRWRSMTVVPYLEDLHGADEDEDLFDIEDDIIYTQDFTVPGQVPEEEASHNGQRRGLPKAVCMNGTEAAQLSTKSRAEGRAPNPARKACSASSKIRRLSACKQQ
UniProt Q9Y5B9, whole entry, looked up: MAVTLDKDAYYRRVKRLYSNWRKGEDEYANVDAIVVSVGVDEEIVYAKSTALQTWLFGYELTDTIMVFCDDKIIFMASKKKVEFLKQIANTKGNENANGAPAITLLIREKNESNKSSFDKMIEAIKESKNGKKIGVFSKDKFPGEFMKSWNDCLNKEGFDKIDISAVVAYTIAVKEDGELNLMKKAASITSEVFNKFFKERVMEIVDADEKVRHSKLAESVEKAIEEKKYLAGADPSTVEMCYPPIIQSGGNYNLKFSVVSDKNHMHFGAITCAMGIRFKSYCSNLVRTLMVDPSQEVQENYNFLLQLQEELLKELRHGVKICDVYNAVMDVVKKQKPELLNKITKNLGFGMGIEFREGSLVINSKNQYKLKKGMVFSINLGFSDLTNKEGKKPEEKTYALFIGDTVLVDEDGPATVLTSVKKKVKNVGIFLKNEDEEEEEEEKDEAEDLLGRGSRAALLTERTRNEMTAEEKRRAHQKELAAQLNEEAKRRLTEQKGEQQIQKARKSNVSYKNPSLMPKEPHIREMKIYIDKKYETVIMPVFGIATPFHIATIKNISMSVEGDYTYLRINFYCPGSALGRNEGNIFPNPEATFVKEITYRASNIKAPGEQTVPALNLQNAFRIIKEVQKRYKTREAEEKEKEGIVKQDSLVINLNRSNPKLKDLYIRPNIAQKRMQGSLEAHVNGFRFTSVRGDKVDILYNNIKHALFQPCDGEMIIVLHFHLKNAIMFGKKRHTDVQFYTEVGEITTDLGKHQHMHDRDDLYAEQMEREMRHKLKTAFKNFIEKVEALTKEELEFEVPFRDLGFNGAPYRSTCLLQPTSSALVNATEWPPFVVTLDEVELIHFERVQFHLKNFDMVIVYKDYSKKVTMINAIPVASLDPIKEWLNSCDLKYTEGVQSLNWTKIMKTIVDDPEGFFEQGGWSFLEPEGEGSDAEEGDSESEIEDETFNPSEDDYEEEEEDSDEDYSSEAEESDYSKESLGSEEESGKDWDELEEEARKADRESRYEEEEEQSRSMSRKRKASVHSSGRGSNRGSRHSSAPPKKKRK
UniProt P57105: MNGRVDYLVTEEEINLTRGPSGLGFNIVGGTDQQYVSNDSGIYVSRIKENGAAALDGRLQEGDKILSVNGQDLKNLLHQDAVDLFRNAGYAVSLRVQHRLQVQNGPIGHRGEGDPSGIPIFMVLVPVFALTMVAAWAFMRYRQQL
UniProt Q93045: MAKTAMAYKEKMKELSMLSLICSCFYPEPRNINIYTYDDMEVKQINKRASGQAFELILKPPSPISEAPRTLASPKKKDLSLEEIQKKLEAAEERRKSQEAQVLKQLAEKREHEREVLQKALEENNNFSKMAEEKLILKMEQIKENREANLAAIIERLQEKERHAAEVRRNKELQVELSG

Experiments:
Assay in all cases: log2 fold change, soluble protein after heating vs DMSO (PISA); higher = thermal stabilisation; K562 lysate, 10 uM; active = over 0.2 and 3.5 SD of the protein, either way, in both replicates (recomputed)
nilotinib = compound: Cc1cn(-c2cc(NC(=O)c3ccc(C)c(Nc4nccc(-c5cccnc5)n4)c3)cc(C(F)(F)F)c2)cn1 [nilotinib]
How it was run: (§1)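 Soluble protein was defined as the supernatant remaining after 21,000xg for 90 min, following pooling of heated aliquots and adjustment to 0.5% NP-40 at 4°C. Before that, crude K562 extract at 1 mg/mL protein in PBS pH 7.4 with 1 mM MgCl2 was treated with 10 μM compound for 30 min and heated for 3 min across 48°C-58°C. Quantification used TMTpro 16plex LC-MS/MS with channel sums equalised, and values are log-two fold changes in thermal stability relative to solvent controls from duplicates.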

[1] = compound: Cc1nc(Nc2n[nH]c3c2CN(C(=O)N[C@H](CN(C)C)c2ccccc2)C3(C)C)c2sccc2n1
How it was run: as §1

dasatinib = compound: Cc1nc(Nc2ncc(C(=O)Nc3c(C)cccc3Cl)s2)cc(N2CCN(CCO)CC2)n1 [dasatinib]
How it was run: as §1

[2] = compound: Cc1ncc(-c2ccnc(Nc3ccc(S(C)(=O)=O)cc3)n2)n1C(C)C
How it was run: as §1

[3] = compound: Cn1cc(-c2ccc3c(c2)CCN3C(=O)Cc2cccc(C(F)(F)F)c2)c2c(N)ncnc21
How it was run: as §1

quisinostat = compound: Cn1cc(CNCC2CCN(c3ncc(C(=O)NO)cn3)CC2)c2ccccc21 [quisinostat]
How it was run: as §1

tipifarnib = compound: Cn1cncc1[C@@](N)(c1ccc(Cl)cc1)c1ccc2c(c1)c(-c1cccc(Cl)c1)cc(=O)n2C [tipifarnib]
How it was run: as §1

[4] = compound: NC(=O)Nc1cc(-c2cccc(F)c2)sc1C(=O)N[C@H]1CCCNC1
How it was run: as §1

[5] = compound: NC(=O)c1cnc(N[C@@H]2CCCC[C@@H]2N)nc1Nc1cccc(-n2nccn2)c1
How it was run: as §1

[6] = compound: NC1(c2ccc(-c3nc4ccn5c(=O)[nH]nc5c4cc3-c3ccccc3)cc2)CCC1
How it was run: as §1

[7] = compound: NCC(=O)Nc1ccc(-n2nc(C(F)(F)F)cc2-c2ccc3c(ccc4ccccc43)c2)cc1
How it was run: as §1

vorinostat = compound: O=C(CCCCCCC(=O)Nc1ccccc1)NO [vorinostat]
How it was run: as §1

silmitasertib = compound: O=C(O)c1ccc2c(c1)nc(Nc1cccc(Cl)c1)c1ccncc12 [silmitasertib]
How it was run: as §1

[8] = compound: O=C1NC(=O)C(c2cnc3ccccn23)=C1c1cn2c3c(cc(F)cc13)CN(C(=O)N1CCCCC1)CC2
How it was run: as §1

entospletinib = compound: c1cn2cc(-c3ccc4cn[nH]c4c3)nc(Nc3ccc(N4CCOCC4)cc3)c2n1 [entospletinib]
How it was run: as §1

Measured: log2 fold change

STRN (UniProt O43815)
inactive: nilotinib 0.021 | [1] 0.016 | dasatinib 0.018 | [2] -0.005 | [3] 0.03 | quisinostat 0.011 | tipifarnib -0.006 | [4] 0.007 | [5] -0.003 | [6] 0.013 | [7] 0.037 | vorinostat -0.05 | silmitasertib 0.017 | [8] -0.011 | entospletinib 0.002

STMN3 (UniProt Q9NZ72)
inactive: nilotinib -0.068 | [1] 0.218 | dasatinib 0.035 | [2] -0.041 | [3] -0.032 | quisinostat 0.006 | tipifarnib 0.176 | [4] -0.022 | [5] -0.006 | [6] 0.052 | [7] -0.028 | vorinostat 0.065 | silmitasertib -0.033 | [8] -0.004 | entospletinib 0.07

SYPL1 (UniProt Q16563)
inactive: nilotinib -0.005 | [1] -0.006 | dasatinib 0.013 | [2] 0.025 | [3] -0.014 | quisinostat -0.075 | tipifarnib 0.034 | [4] -0.002 | [5] -0.013 | [6] -0.044 | [7] -0.003 | vorinostat 0.005 | silmitasertib -0.03 | [8] -0.02 | entospletinib 0.014

TADA1 (UniProt Q96BN2)
inactive: nilotinib 0.003 | [1] 0.025 | dasatinib 0.013 | [2] -0.07 | [3] -0.109 | quisinostat -0.09 | tipifarnib -0.022 | [4] 0.05 | [5] -0.025 | [6] 0.028 | [7] 0.001 | vorinostat -0.068 | silmitasertib 0.008 | [8] 0.004 | entospletinib -0.125

SURF1 (UniProt Q15526)
inactive: nilotinib -0.012 | [1] -0.065 | dasatinib -0.006 | [2] 0.091 | [3] 0.022 | quisinostat 0.041 | tipifarnib -0.095 | [4] -0.021 | [5] 0.024 | [6] -0.021 | [7] -0.03 | vorinostat 0.088 | silmitasertib 0.062 | [8] -0.007 | entospletinib -0.028

SUPT6H (UniProt Q7KZ85)
inactive: nilotinib 0.021 | [1] -0.034 | dasatinib -0.042 | [2] -0.01 | [3] 0.054 | quisinostat -0.047 | tipifarnib -0.016 | [4] 0.035 | [5] 0.022 | [6] 0.054 | [7] 0.023 | vorinostat -0.12 | silmitasertib 0.06 | [8] -0.029 | entospletinib 0.017

SYNJ2BP-COX16, A0A087WYV9
inactive: nilotinib 0.071 | [1] 0.037 | dasatinib 0.09 | [2] 0.058 | [3] 0.017 | quisinostat 0.059 | tipifarnib 0.015 | [4] -0.004 | [5] 0.235 | [6] -0.055 | [7] 0.092 | vorinostat 0.124 | silmitasertib 0.041 | [8] -0.035 | entospletinib -0.034

STK36 (UniProt Q9NRP7)
inactive: nilotinib 0.081 | [1] -0.179 | dasatinib -0.142 | [2] -0.02 | [3] -0.113 | tipifarnib -0.059 | [4] 0.059 | [5] 0.117 | [6] -0.265 | [7] 0.283 | vorinostat 0.143 | silmitasertib -0.032 | [8] 0.101 | entospletinib -0.031
active: quisinostat -1.31

STRIP1 (UniProt Q5VSL9)
inactive: nilotinib -0.014 | [1] 0.035 | dasatinib -0.025 | [2] -0.01 | [3] 0.03 | quisinostat 0.006 | tipifarnib -0.015 | [4] 0.007 | [5] 0.03 | [6] 0.012 | [7] 0.007 | vorinostat -0.164 | silmitasertib 0.023 | [8] -0.013 | entospletinib -0.01

TACC3 (UniProt Q9Y6A5)
inactive: nilotinib -0.001 | [1] 0.018 | dasatinib 0.021 | [2] 0.02 | [3] -0.012 | quisinostat 0.02 | tipifarnib -0.002 | [4] -0.021 | [5] -0.011 | [6] 0.009 | [7] -0.025 | vorinostat 0.065 | silmitasertib -0.025 | [8] 0.021 | entospletinib 0

SYNJ2 (UniProt O15056)
inactive: nilotinib 0.032 | [1] -0.029 | dasatinib -0.037 | [2] 0.005 | [3] -0.002 | quisinostat -0.039 | tipifarnib -0.071 | [4] -0.001 | [5] 0.033 | [6] -0.011 | [7] 0.015 | vorinostat -0.206 | silmitasertib 0.034 | [8] 0.024 | entospletinib 0.046

Quoted from the entries so far (two entries):
STRIP1 (UniProt Q5VSL9)
inactive: nilotinib -0.014 | [1] 0.035 | dasatinib -0.025 | [2] -0.01 | [3] 0.03 | quisinostat 0.006 | tipifarnib -0.015 | [4] 0.007 | [5] 0.03 | [6] 0.012 | [7] 0.007 | vorinostat -0.164 | silmitasertib 0.023 | [8] -0.013 | entospletinib -0.01

TACC3 (UniProt Q9Y6A5)
inactive: nilotinib -0.001 | [1] 0.018 | dasatinib 0.021 | [2] 0.02 | [3] -0.012 | quisinostat 0.02 | tipifarnib -0.002 | [4] -0.021 | [5] -0.011 | [6] 0.009 | [7] -0.025 | vorinostat 0.065 | silmitasertib -0.025 | [8] 0.021 | entospletinib 0

The list continues:

SUPT5H (UniProt O00267)
inactive: nilotinib -0.012 | [1] -0.004 | dasatinib 0.009 | [2] -0.02 | [3] 0.018 | quisinostat 0.007 | tipifarnib 0.035 | [4] 0 | [5] -0.003 | [6] -0.001 | [7] 0.031 | vorinostat -0.158 | silmitasertib 0.008 | [8] -0.026 | entospletinib -0.004

STX8 (UniProt Q9UNK0)
inactive: nilotinib 0.022 | [1] -0.028 | dasatinib 0.031 | [2] -0.056 | [3] 0.106 | quisinostat -0.111 | tipifarnib -0.019 | [4] -0.006 | [5] 0.012 | [6] 0.06 | [7] 0.009 | vorinostat 0.074 | silmitasertib 0.038 | [8] -0.065 | entospletinib -0.047

STK11 (UniProt Q15831)
inactive: nilotinib -0.032 | [1] 0.009 | dasatinib -0.014 | [2] 0 | [3] 0.044 | quisinostat -0.035 | tipifarnib -0.012 | [4] 0.044 | [5] 0.082 | [6] -0.027 | [7] 0.046 | vorinostat 0.189 | silmitasertib -0.082 | [8] -0.009 | entospletinib -0.013

SWAP70 (UniProt Q9UH65)
inactive: nilotinib -0.027 | [1] 0.039 | dasatinib 0 | [2] -0.01 | [3] 0 | quisinostat 0.062 | tipifarnib 0.035 | [4] -0.015 | [5] -0.004 | [6] 0.012 | [7] 0.008 | vorinostat 0.012 | silmitasertib 0.007 | [8] -0.038 | entospletinib -0.007

SUOX (UniProt P51687)
inactive: nilotinib 0.008 | [1] 0.004 | dasatinib 0.007 | [2] 0.005 | [3] 0.051 | quisinostat -0.058 | tipifarnib -0.056 | [4] 0.008 | [5] 0.017 | [6] 0 | [7] -0.011 | vorinostat 0.058 | silmitasertib 0.01 | [8] 0.006 | entospletinib 0.038

TAF4B (UniProt Q92750)
inactive: nilotinib -0.083 | [1] -0.008 | dasatinib 0.03 | [2] -0.017 | [3] 0.075 | quisinostat 0.064 | tipifarnib 0.053 | [4] 0.022 | [5] 0.042 | [6] -0.025 | [7] -0.001 | vorinostat 0.169 | silmitasertib -0.038 | [8] 0.031 | entospletinib 0.057

STXBP2 (UniProt Q15833)
inactive: nilotinib -0.034 | [1] 0.008 | dasatinib -0.027 | [2] -0.011 | [3] 0.023 | quisinostat -0.057 | tipifarnib -0.018 | [4] 0.026 | [5] 0.007 | [6] 0.01 | [7] -0.013 | vorinostat -0.14 | silmitasertib 0.035 | [8] 0.022 | entospletinib 0.021

SUPT16H (UniProt Q9Y5B9)
inactive: nilotinib -0.014 | [1] 0.024 | dasatinib 0.021 | [2] -0.004 | [3] 0.022 | quisinostat -0.015 | tipifarnib 0.026 | [4] 0.004 | [5] 0.012 | [6] -0.014 | [7] -0.003 | vorinostat -0.022 | silmitasertib 0 | [8] -0.008 | entospletinib -0.012

SYNJ2BP (UniProt P57105)
inactive: nilotinib -0.086 | [1] -0.001 | dasatinib 0.055 | [2] -0.087 | [3] -0.038 | quisinostat 0.009 | tipifarnib 0.019 | [4] 0.01 | [5] 0.018 | [6] -0.009 | [7] -0.122 | vorinostat 0.006 | silmitasertib -0.002 | [8] -0.017 | entospletinib -0.119

STMN2 isoform 2 (UniProt Q93045)
inactive: nilotinib -0.073 | [1] 0.014 | dasatinib 0 | [2] -0.011 | [3] -0.079 | quisinostat 0.027 | tipifarnib 0.118 | [4] -0.022 | [5] -0.051 | [6] -0.032 | [7] 0.005 | vorinostat 0.139 | silmitasertib 0.009 | [8] 0.015 | entospletinib 0.042
